Data: publication PMC8139508
These are yes or no findings as the source states them, for the method shown. Binding seen in cells or lysates may run through a third protein. Some results given as binding are weak or reduced against the parent protein; the word gives no strength.

Chains of the proteins cited; added tags and fusions are not shown.
UniProt P03107: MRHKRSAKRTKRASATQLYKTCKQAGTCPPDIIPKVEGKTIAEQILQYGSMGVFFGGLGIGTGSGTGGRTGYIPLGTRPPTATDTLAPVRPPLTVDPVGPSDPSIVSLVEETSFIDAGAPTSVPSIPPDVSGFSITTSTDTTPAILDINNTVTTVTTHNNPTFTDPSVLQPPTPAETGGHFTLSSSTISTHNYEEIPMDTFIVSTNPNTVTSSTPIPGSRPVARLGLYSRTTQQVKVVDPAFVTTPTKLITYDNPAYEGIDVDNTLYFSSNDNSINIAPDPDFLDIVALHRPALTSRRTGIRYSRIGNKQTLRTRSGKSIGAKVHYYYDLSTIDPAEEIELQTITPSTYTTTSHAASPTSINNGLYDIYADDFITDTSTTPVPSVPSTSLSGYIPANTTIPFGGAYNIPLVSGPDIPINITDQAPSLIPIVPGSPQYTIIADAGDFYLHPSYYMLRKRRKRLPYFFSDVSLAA
UniProt Q6VN20: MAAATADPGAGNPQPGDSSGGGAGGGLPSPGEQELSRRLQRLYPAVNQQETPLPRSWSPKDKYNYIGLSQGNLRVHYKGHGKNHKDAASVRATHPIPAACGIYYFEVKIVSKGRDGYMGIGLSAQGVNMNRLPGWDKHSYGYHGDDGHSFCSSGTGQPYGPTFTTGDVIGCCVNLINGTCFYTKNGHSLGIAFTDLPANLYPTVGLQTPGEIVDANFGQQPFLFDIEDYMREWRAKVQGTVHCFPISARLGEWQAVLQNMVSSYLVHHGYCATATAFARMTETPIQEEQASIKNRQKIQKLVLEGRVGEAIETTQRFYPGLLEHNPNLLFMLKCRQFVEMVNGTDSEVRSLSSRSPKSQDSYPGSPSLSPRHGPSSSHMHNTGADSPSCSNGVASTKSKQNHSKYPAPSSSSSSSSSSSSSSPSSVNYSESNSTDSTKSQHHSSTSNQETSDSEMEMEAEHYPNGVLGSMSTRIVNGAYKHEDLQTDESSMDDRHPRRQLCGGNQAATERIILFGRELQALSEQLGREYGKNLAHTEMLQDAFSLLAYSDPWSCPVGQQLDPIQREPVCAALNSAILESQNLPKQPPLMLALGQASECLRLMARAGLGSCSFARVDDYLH
UniProt P51808: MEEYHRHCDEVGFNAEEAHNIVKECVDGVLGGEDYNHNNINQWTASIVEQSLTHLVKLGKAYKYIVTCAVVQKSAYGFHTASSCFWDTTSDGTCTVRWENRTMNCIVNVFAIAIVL

Experiments:
[1] = target: HPV16 minor capsid protein L2, wild type, 3xHA-tagged (L2-3xHA) (human papillomavirus type 16) (UniProt P03107); assay: co-IP; HEK293 cells transfected 24 h; unsynchronized or synchronized 16 h with aphidicolin (3 uM, interphase) or nocodazole (330 nM, prometaphase); IP lysis buffer 150 mM NaCl, 1% NP-40, 50 mM Tris-HCl, 50 mM NaF, pH 7.4; anti-HA (HA.11) or anti-FLAG (M2) with protein G agarose; Western blot
[2] = target: HA-tagged Ran-binding protein 10 (HA-RanBP10) (UniProt Q6VN20); assay: as above

| Substance | binding [1] | binding [2] |
| --- | --- | --- |
| FLAG-tagged dynein light chain DYNLT3 (FLAG-DYNLT3) (from UniProt P51808 1-116) | binds | binds |
| HPV16 L2 fused to GFP (L2-GFP) (from UniProt P03107 1-473) | – | binds |
